Experimental data published in publication PMC5482063.
These are yes or no findings as the source states them, for the method shown.

Protein sequences, listed by entry. Tags and fused reporters are not part of them.
UniProt Q96524: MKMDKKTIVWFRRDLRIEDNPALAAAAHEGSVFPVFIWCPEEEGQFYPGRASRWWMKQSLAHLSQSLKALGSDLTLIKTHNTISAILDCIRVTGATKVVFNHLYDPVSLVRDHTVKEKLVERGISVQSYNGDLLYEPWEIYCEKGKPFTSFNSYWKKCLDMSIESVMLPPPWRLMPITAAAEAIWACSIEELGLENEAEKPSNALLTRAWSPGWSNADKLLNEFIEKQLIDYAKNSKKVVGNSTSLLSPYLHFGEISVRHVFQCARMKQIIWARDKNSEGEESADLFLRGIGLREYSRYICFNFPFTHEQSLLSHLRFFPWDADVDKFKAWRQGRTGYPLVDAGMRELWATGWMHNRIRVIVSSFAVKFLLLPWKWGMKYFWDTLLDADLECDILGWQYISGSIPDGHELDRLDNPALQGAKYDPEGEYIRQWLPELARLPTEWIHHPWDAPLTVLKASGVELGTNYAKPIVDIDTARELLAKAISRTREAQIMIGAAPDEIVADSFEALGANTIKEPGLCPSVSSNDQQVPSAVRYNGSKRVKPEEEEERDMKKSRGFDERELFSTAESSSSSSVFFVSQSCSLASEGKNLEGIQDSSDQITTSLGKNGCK
UniProt O15085: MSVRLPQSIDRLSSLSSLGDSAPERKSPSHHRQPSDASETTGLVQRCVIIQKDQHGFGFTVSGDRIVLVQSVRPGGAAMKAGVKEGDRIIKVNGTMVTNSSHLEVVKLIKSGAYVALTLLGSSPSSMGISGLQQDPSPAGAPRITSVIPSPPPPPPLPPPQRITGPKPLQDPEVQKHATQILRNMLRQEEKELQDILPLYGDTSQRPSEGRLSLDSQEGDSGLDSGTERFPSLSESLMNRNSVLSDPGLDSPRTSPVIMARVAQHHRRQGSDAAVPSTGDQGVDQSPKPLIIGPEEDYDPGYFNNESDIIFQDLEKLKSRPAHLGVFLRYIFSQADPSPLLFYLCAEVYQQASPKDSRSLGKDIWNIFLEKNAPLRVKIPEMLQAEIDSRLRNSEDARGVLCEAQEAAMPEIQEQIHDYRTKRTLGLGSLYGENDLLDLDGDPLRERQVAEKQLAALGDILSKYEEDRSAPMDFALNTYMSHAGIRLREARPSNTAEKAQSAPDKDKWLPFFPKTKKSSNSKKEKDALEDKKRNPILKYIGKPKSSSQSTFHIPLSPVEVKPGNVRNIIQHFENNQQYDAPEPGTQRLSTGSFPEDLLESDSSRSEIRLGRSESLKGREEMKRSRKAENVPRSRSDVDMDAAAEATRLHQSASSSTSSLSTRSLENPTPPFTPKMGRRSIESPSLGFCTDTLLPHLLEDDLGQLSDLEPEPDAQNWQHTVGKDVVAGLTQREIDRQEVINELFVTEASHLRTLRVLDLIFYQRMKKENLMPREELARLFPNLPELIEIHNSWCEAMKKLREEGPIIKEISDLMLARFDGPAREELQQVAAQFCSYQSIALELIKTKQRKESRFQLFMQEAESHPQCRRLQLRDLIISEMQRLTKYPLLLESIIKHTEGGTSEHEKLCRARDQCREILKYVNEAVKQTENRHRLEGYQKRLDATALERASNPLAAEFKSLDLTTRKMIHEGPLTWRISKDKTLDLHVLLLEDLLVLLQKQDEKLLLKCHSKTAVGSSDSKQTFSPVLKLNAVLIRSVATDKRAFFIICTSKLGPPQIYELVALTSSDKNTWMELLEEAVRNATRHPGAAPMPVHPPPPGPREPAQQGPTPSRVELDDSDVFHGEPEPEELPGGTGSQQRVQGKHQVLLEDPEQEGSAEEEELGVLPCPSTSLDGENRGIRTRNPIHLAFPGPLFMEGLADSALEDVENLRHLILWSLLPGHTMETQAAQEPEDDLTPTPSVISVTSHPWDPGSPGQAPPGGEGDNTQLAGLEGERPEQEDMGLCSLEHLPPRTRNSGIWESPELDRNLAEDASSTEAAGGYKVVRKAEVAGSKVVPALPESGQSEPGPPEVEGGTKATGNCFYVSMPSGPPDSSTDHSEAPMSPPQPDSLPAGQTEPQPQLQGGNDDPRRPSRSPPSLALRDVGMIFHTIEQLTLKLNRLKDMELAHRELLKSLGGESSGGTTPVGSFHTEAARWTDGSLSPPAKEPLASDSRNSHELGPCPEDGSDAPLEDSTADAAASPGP
UniProt Q9NZN5: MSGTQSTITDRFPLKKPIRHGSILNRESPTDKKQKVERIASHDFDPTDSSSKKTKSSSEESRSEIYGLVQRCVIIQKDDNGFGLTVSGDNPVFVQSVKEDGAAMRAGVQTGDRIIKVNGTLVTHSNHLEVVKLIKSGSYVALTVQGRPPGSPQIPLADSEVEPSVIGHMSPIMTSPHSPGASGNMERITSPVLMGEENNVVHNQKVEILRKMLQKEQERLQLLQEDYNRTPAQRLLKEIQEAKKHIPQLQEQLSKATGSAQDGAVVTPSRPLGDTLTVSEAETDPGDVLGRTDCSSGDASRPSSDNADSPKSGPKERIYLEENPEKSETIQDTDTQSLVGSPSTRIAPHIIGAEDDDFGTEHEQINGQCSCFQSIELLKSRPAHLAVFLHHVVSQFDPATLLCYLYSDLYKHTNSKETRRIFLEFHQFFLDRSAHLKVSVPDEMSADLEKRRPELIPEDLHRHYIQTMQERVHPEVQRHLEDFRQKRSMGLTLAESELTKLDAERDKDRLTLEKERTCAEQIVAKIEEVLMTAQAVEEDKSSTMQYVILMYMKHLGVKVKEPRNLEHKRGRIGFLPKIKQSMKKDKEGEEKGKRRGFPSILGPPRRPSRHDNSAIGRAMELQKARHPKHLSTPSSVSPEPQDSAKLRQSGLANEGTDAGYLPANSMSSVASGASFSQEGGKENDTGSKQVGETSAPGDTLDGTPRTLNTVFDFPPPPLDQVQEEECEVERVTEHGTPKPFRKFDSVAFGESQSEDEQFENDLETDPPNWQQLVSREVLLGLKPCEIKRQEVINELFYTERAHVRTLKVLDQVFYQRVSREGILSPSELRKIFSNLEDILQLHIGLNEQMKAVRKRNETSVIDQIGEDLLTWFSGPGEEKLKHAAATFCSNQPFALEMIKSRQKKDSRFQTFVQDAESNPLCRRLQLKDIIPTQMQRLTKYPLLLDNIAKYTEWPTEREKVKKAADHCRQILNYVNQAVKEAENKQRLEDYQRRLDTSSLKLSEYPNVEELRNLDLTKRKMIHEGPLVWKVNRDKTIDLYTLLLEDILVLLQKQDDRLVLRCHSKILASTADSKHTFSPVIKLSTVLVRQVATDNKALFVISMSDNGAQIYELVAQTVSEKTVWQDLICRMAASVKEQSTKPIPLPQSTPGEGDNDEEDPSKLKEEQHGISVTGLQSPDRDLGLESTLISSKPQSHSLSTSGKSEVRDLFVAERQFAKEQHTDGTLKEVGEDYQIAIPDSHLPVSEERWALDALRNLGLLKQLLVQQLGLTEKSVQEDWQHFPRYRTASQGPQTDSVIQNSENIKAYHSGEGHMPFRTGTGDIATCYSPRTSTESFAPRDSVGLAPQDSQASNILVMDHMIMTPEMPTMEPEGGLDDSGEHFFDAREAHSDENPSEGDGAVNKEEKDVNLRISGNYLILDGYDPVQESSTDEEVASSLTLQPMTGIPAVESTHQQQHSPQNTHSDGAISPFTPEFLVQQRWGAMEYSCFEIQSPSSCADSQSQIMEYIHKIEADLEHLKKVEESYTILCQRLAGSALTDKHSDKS

Target: Cry2 alone (mCherry-tagged Cryptochrome-2) (UniProt Q96524)
Assay: membrane co-recruitment assay (TIRF microscopy); living COS-7 cells co-expressing mVenus-RhoGEF, the mCherry-tagged Cry2 construct and CIB-CAAX; whole-cell blue light; increase of the RhoGEF's fluorescence relative to that of optoPlexin (relative co-recruitment); only cells with at least 30% increase in optoPlexin signal; also with Erlotinib

Row | Substance | binding
1 | mVenus-PDZ-RhoGEF (mVenus-PRG) (from UniProt O15085 1-1522) | no binding
2 | mVenus-Leukemia-associated RhoGEF (mVenus-LARG) (from UniProt Q9NZN5 1-1544) | no binding
